According to paper PMC9638024, “Functional rewiring of G protein-coupled receptor signaling in human labor” (Cell Reports, 2022):
No constants are given. Whether binding was seen depends on the method and setting. Binding seen in cells or lysates may run through a third protein. Some binding calls cover weakened binding; strength is not graded here.

Amino acid sequences for entries named in this document (tags omitted).
UniProt P43116: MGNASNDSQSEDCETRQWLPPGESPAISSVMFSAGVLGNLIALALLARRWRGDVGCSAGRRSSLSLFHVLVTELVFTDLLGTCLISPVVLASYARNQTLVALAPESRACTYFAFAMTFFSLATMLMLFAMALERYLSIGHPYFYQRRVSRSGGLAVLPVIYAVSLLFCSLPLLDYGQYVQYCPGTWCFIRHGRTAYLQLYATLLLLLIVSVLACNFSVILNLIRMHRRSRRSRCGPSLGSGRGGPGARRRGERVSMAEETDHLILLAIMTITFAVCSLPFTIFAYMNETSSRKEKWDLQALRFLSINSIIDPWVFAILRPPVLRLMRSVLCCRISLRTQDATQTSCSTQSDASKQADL
UniProt P30559: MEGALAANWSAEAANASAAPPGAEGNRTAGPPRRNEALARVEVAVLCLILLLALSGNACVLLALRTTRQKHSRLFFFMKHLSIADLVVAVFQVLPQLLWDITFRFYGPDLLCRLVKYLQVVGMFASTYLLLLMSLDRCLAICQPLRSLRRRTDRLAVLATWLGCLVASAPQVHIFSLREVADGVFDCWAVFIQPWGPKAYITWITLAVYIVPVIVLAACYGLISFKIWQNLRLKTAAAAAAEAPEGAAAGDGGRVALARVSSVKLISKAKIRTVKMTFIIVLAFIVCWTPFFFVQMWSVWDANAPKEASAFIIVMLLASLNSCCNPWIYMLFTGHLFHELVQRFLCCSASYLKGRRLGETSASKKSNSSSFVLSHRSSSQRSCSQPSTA

Assays:
[1] = molecular target: endogenous EP2 (prostaglandin E2 receptor EP2) (human (endogenous in primary myometrial cells)) (UniProt P43116); assay: proximity ligation; Duolink In situ Orange kit Goat/Rabbit; anti-EP2 rabbit (H-75) and anti-OTR goat (N-19) at 1:50; primary myocyte cultures of non-laboring myometrium, before and after OT treatment
[2] = molecular target: Rluc8-tagged EP2 (prostaglandin E2 receptor EP2) (human) (UniProt P43116); assay: FRET or BRET; BRET in living HEK 293 cells; 1 ug EP2-Rluc and increasing amounts of OTR-Venus (0.01-2 ug) transfected; 48 h after transfection, coelenterazine-h 5 uM, emission at 488 nm and 530 nm
[3] = molecular target: Rluc8-tagged EP2 (prostaglandin E2 receptor EP2) (human) (UniProt P43116); assay: FRET or BRET; BRET in living primary human myocytes from term-pregnant myometrium; 1 ug EP2-Rluc and increasing amounts of OTR-Venus (0.01-2 ug) transfected; coelenterazine-h 5 uM

binding [1]	binding [2]	binding [3]	Substance
binds	–	–	endogenous OTR (oxytocin receptor) (from UniProt P30559 1-389)
–	binds	binds	Venus-tagged OTR (oxytocin receptor) (from UniProt P30559 1-389)
